Measured values reported in US8530475B2, “Bridged aryl piperazines derivatives useful for the treatment of CNS, GI-urinary and reproductive disorders” (Janssen Pharmaceutica NV, priority 2006, dated 2013).
Some entries of the source have several records that differ or are many. The other results are left out here. The source may hold further records. Results that share an entry differ for a reason that is not stated; they may come from other doses, times, organisms or constructs than stated.

By UniProt entry, the sequences of proteins in these tests, tags left out.
UniProt P08908, whole entry: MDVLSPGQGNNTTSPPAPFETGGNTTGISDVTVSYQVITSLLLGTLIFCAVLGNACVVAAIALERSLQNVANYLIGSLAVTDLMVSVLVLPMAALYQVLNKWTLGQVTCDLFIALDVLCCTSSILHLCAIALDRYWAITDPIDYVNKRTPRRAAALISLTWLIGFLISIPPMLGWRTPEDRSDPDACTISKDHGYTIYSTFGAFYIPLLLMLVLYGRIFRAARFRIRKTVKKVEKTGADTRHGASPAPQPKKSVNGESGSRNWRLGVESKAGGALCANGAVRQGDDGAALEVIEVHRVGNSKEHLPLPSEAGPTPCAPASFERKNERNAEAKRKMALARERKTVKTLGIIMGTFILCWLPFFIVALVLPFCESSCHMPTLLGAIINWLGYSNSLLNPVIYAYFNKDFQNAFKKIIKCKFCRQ

Target: human 5HT1A receptor (Homo sapiens, UniProt P08908)
Experiment: [35S]GTPγS binding for 5-HT1A receptor inhibition (antagonist mode)
Conditions: Example 78, HEK293 membranes, antagonist mode with serotonin 100 nM, <5 = not active at up to 10 μM
Experimental: Compounds showing affinity at the 5-HT1A receptor were tested for functional agonism and antagonism in a [^35S]GTPγS (guanine triphosphate (non-hydrolysable, labelled with ^35S) binding assay on membranes of HEK293 cells permanently transfected with human 5HT1A receptor (Perkin Elmer, USA).
Frozen membranes were thawed, briefly homogenized and were diluted in incubation buffer, 100 mM NaCl, 0.3 mM MgCl2 and 10 μM guanine diphosphate (GDP), pH 7.4-7.5) supplemented with 10 μg/ml saponin. Assay mixtures contained 10 μg of membrane protein and test compound, buffer, or control agonist (serotonin, 10 μM). For the antagonistic assay, control agonist was present in all wells containing compound at a sub-maximal concentration (serotonin, 100 nM). After 20 minutes pre-incubation at 37° C., [^35S]GTPγS was added to a final concentration of 0.25 nM, briefly shaken and further incubated for another 20 minutes. Reactions were terminated by rapid vacuum filtration through GF/B unifilter plates using a Packard Harvester. Filters were washed three times with wash buffer (10 mM NaH2PO4, 10 mM Na2HPO4, pH 7.4), dried overnight and bound counts were measured in a Topcount Scintillation Counter in the presence of Microscint O. % Specific Binding was calculated and curves were plotted with help of in house software where pIC50 values were determined and Kb values were calculated.

- h5HT1A Antagonist pIC50: 6.18 and 5.72
Structure (SMILES): Cc1cc2c(OC[C@@H](O)CN3C[C@@H]4CC=CC[C@H]3CN4c3ccc4ccccc4c3)cccc2[nH]1
